In all, about 140,000 compounds went through this assay and about 4,300 (3.1%) were called active. This list was built around the results that the source calls inconclusive (neither active nor inactive); the mix of calls is not that of the screen.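 Rule for the calls: active = readout at or below -70, meaning at least 70% loss of cells showing the perinucleolar compartment, a nuclear body marking cancer cells; inconclusive = readout between -30 and a set limit; inactive = the rest.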
Assay: High Content Assay for Compounds that inhibit the Assembly of the Perinucleolar Compartment;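 note: plate controls were DMSO wells for no effect and camptothecin positive control wells for full effect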
Conditions: PC3M PTB-GFP, PNC prevalence imaging, 16 h; at 10 µM; stronger effect = lower value
Outline: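 Read-out is percentage of cells bearing a perinucleolar compartment, from automated 20x imaging of fixed, Hoechst-stained PC3M PTB-GFP cells. Cells were seeded 4 h, then exposed 16 h to compound (23 nl of library stock) in duplicate plates.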

Structure (SMILES)	activity change (PNC), negative = inhibition
Cc1ccc(S(=O)(=O)N2CCC(=O)N(CCOCc3cccc(Cl)c3)CC2)cc1	inconclusive: -51.2%
Cc1cc(/C=C2\NC(=O)N(Cc3ccc(Cl)cc3)C2=O)c(C)n1C	inactive: 14.5%
CN(C)c1ccc(NC(=O)/C=C/c2c(Cl)cccc2Cl)cc1	active: -93%
Fc1ccc(CN2C3=NCCCN3c3ccccc32)cc1	inconclusive: -74.3%
CC(C)n1c(NCc2ccc(N(C)C)cc2)nc2ccccc21	inconclusive: -49%
O=C(CSc1ncccn1)NC(=O)NCc1ccccc1	inconclusive: -36.8%
Cc1cc(C)n(S(=O)(=O)c2cccc(Cl)c2Cl)n1	inactive: 19.7%
O=C(COC(=O)c1ccc(N2CCCC2=O)cc1)NCc1ccco1	inconclusive: -78.9%
NC(=O)c1ccc(Cc2ncc(C(F)(F)F)cc2Cl)s1	inconclusive: -62.4%
Cc1nnc(SCC(=O)NNC(=O)c2ccccc2)n1-c1ccccc1	active: -84%
O=C1NCCCC2c3cc(O)c4ccccc4c3OC12N1CCCCC1 (stereo not given)	inconclusive: -62.2%
Clc1ccc(CSc2nnc(Cn3cnc4ccccc43)o2)cc1	inconclusive: -39.3%
CCNC(=O)CC1C(=O)N(c2cccc(OC)c2)C(=O)N1CCOC (stereo not given)	inactive: 13.7%
CCCCOC(=O)CCNc1n[nH]c(=O)[nH]c1=O	inconclusive: -42.7%
Cn1c(=O)c2c(nc(OCc3cccnc3)n2Cc2ccccc2)n(C)c1=O	inconclusive: -73.6%
COC(=O)NNC(=O)c1cccc(C)c1	inconclusive: -44.6%
Cc1ccc(S(=O)(=O)NC(=O)Nc2ccc(F)cc2)cc1	inconclusive: -49%
COCc1c(C#N)c(NCCc2ccc(F)cc2)nc(C)c1[N+](=O)[O-]	inconclusive: -37.1%
COC(=O)c1ccc(N2C(=O)CC(N(C)CCc3ccc(OC)c(OC)c3)C2=O)cc1 (stereo not given)	active: -119%
COc1ccc(CC(=O)Nc2cc3oc4ccccc4c3cc2OC)cc1	inconclusive: -43.9%
CN1CCN(Cc2c(O)ccc3occ(C(=O)c4ccccc4)c23)CC1	inconclusive: -35.1%
O=C1NCN(c2ccccc2)C12CCN(c1nnnn1-c1ccccc1)CC2	inconclusive: -41.6%
CCc1ccc(CNC(=O)c2cc3c(C)nc4ccccc4c3o2)cc1	inconclusive: -67.2%

Structure (SMILES)	activity change (PNC), negative = inhibition
CC1=C(c2ccccc2)[N+](=O)C2(CCCC2)N1[O-]	inactive: 13.1%
CCOc1cc(/C=N/NC(=O)C(C)Sc2ccccn2)ccc1O (stereo not given)	inconclusive: -45.6%
O=C(CCN1C(=O)c2ccccc2C1=O)C1=NN[C@@H]2C(=O)N(c3cccc(Cl)c3)C(=O)[C@H]12	inconclusive: -50.6%
O=C(COC(=O)CNC(=O)c1ccccc1)Nc1cccc(Br)c1	inactive: 24.6%
O=C(CSc1oc(-c2ccco2)nc1S(=O)(=O)c1ccc(Cl)cc1)NCC1CCCO1 (stereo not given)	inconclusive: -67.6%
COc1cc(S(=O)(=O)N2CCN(C(=O)c3ccccc3F)CC2)c(OC)cc1NC(C)=O	inconclusive: -36.9%
COc1cc(CNC2CCCC2)cc(Cl)c1OCc1ccc(F)cc1	inconclusive: -58.5%
CN(CCO)c1cc(N2CCC3(CC2)OCCO3)c2nonc2c1[N+](=O)[O-]	inactive: -9.98%
Cn1c(=O)[nH]c(=O)c2c1nc(N(CCO)Cc1ccccc1)n2Cc1ccccc1Cl	inconclusive: -53.6%
CC(=O)Nc1ccc(S(=O)(=O)N2CCN(c3cc4c(cc3[N+](=O)[O-])n(C)c(=O)n4C)CC2)cc1	inconclusive: -45.4%
Cc1cccc(-n2cc(C#N)c(=O)[nH]c2=O)n1	inconclusive: -30.8%
COc1ccc2[nH]c(C)c(CN3CCCCC3)c(=O)c2c1	inactive: 8.35%
CCOC(=O)c1c(NC(=O)c2ccccc2Cl)sc2c1CCc1ccccc1-2	inactive: -2.95%
O=c1[nH]c2cc3c(cc2cc1CN(CC1CCCO1)S(=O)(=O)c1ccc(Cl)cc1)OCCO3 (stereo not given)	inconclusive: -33.3%
O=C(O)c1c[nH]c(=S)n1-c1ccc(F)cc1	inconclusive: -30.4%
CC(C)Cc1nc(N2CCN(C(=O)C(C)C)CC2)c(C#N)c2c1CCC2	inconclusive: -34.1%
O=C(c1ccccc1)N(Cc1ccc(F)cc1)Cc1nc2ccccc2c(=O)[nH]1	inconclusive: -37.3%
CC(C)COP(=O)(CNC(=O)CN1C(=O)c2ccccc2S1(=O)=O)OCC(C)C	active: -82.2%
Cc1ccc(NCc2nnc(SCC(=O)N3CCc4ccccc43)n2C)cc1	inactive: -12.1%
CC1CCN(C(=S)Nc2ccc3nc4n(c(=O)c3c2)CCCCC4)CC1	inconclusive: -31.1%
O=C(CSc1nnc(SCc2cccc3ccccc23)s1)c1ccc2c(c1)OCO2	inactive: 7.25%
CCn1c(-c2ccco2)n[nH]c1=S	inactive: 35.5%

Filtered by structure: the compounds so far containing a nitro group on carbon.
Structure (SMILES)	activity change (PNC), negative = inhibition
COCc1c(C#N)c(NCCc2ccc(F)cc2)nc(C)c1[N+](=O)[O-]	inconclusive: -37.1%
CN(CCO)c1cc(N2CCC3(CC2)OCCO3)c2nonc2c1[N+](=O)[O-]	inactive: -9.98%
CC(=O)Nc1ccc(S(=O)(=O)N2CCN(c3cc4c(cc3[N+](=O)[O-])n(C)c(=O)n4C)CC2)cc1	inconclusive: -45.4%
